From PMC7360120
Residue numbers refer to the chain shown, from its start. These are yes or no findings as the source states them, for the method shown. For some of these results: A result given as binding can be weak or reduced; the word gives no strength. Where a sequence is shown, tags or fusion partners need not be part of it. For some of these results: In cells and extracts the contact can be indirect.

Assays:
GST-Rab6A Q72L = target: T1, GST-Rab6A Q72L (UniProt P35279); experiment: pull-down; GST-Rab proteins (10 μg) on glutathione-Sepharose with 0.5 mL lysate of HEK293T cells transfected with HA-ELKS; 100 mM NaCl, 4 mM EGTA, 25 mM HEPES pH 7.4, 1 mM DTT, 1% Triton X-100, 6 mM Mg2+, 1.5 h at 4°C; HA western blot; only the target purified
T1 sequence: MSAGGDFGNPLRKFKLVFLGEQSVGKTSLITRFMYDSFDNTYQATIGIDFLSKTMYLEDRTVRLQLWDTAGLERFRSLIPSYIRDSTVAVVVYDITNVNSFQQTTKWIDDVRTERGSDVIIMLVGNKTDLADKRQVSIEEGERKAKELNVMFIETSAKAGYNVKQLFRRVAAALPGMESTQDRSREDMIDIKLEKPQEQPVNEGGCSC

GST-ELKS2αB 765-884 = target: T2, GST-ELKS2αB 765-884 (UniProt Q8K3M6); experiment: pull-down; GST-ELKS fragments on glutathione-Sepharose with soluble purified His-Rab6 point mutants (1.2 μM); 150 mM NaCl, 20 mM HEPES pH 7.4, 4 mM EGTA, 1 mM DTT, 1% Triton X-100, 0.1 mg/ml BSA, 5 mM Mg2+, 1 h at 4°C; T7 western blot; both purified
T2 sequence: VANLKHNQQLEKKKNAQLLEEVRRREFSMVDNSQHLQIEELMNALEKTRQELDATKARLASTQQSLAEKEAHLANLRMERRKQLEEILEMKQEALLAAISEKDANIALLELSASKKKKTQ

GST-Rab3A T36N = target: T3, GST-Rab3A T36N (UniProt P63011); experiment: pull-down; GST-Rab proteins (10 μg) on glutathione-Sepharose with 0.5 mL lysate of HEK293T cells transfected with HA-ELKS; 100 mM NaCl, 4 mM EGTA, 25 mM HEPES pH 7.4, 1 mM DTT, 1% Triton X-100, 6 mM Mg2+, 1.5 h at 4°C; HA western blot; only the target purified
T3 sequence: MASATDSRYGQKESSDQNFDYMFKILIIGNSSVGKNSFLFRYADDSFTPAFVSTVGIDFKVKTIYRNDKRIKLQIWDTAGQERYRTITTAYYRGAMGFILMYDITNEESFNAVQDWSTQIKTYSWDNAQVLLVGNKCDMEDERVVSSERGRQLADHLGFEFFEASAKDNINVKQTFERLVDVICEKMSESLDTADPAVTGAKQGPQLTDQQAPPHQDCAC

GST-Rab3A Q81L = target: T4, GST-Rab3A Q81L (UniProt P63011); experiment: as above
T4 sequence: T3 sequence with N36T, Q81L

| Substance | binding (GST-Rab6A Q72L) | binding (GST-ELKS2αB 765-884) | binding (GST-Rab3A T36N) | binding (GST-Rab3A Q81L) |
| --- | --- | --- | --- | --- |
| HA-ELKS1^∆955-971 | no binding (tested: 10 μg GST-Rab in 0.5 mL lysate) | – | – | – |
| His-Rab6 (tested with ELKS2, Figures S3D-S3G) | – | binds | – | – |
| HA-ELKS1αA | – | – | no binding (tested: 10 μg GST-Rab in 0.5 mL lysate) | no binding (tested: 10 μg GST-Rab in 0.5 mL lysate) |
| HA-ELKS2αA (as printed in the legend of Figure 3) | – | – | no binding (tested: 10 μg GST-Rab in 0.5 mL lysate) | no binding (tested: 10 μg GST-Rab in 0.5 mL lysate) |
| HA-ELKS1βB | – | – | no binding (tested: 10 μg GST-Rab in 0.5 mL lysate) | no binding (tested: 10 μg GST-Rab in 0.5 mL lysate) |
| HA-ELKS2βB | – | – | no binding (tested: 10 μg GST-Rab in 0.5 mL lysate) | binds weakly |
| HA-ELKS1αB | binds | – | no binding (tested: 10 μg GST-Rab in 0.5 mL lysate) | no binding (tested: 10 μg GST-Rab in 0.5 mL lysate) |
